Measurements: publication PMC5589589
No constants are given. Whether binding was seen depends on the method and setting. In cells and extracts the contact can be indirect. Some results given as binding are weak or reduced against the parent protein; the word gives no strength.

Sequences of proteins named here, by UniProt entry; tags and fusion partners are left off.
UniProt Q13547: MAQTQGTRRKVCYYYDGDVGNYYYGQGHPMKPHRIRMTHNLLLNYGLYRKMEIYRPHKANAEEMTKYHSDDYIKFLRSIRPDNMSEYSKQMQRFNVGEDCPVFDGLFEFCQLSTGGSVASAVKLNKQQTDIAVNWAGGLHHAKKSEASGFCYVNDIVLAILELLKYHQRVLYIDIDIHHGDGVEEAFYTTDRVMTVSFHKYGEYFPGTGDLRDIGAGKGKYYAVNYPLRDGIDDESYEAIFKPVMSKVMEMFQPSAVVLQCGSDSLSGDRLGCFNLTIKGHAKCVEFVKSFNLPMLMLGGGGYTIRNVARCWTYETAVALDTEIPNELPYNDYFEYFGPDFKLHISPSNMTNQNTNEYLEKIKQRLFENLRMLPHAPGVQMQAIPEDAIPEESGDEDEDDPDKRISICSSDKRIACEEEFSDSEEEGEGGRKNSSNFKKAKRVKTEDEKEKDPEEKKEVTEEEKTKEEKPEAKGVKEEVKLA

Target: T1, zinc finger E-box binding homeobox 1 protein (ZEB1) (human) (UniProt P37275)
T1 sequence: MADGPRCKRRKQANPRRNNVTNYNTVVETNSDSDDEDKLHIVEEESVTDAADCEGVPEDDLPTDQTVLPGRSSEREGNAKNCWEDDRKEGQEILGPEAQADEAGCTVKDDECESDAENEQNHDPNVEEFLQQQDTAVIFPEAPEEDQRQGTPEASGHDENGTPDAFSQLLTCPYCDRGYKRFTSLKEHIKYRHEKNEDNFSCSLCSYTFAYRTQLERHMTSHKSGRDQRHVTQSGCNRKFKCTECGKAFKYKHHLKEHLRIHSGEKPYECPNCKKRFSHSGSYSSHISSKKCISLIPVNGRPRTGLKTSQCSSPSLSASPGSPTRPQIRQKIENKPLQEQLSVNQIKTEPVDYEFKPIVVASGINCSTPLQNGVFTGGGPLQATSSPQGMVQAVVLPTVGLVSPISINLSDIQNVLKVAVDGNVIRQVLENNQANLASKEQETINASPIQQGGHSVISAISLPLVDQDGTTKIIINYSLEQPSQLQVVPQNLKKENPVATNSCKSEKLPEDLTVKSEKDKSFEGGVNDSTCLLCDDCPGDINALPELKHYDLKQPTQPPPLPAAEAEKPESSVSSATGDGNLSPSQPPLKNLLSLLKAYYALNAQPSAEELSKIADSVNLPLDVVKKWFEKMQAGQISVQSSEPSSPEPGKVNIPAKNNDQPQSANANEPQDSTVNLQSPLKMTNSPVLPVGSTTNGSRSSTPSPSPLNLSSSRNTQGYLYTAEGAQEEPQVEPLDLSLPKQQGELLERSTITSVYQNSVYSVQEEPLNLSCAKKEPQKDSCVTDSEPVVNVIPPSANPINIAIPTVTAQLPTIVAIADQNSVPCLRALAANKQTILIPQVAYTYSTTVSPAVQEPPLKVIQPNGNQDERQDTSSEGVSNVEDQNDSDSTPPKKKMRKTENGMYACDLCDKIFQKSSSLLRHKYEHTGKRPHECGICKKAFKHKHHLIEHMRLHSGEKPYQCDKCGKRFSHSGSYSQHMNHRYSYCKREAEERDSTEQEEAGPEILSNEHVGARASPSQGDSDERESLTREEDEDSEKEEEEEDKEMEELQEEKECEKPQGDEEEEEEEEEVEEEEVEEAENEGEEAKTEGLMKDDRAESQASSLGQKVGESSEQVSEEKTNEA
Experiment: co-IP; lysates of ZEB1/231 cells incubated with specific antibodies and Protein G agarose beads at 4°C overnight; washed three times with 50 mM Tris (pH 7.5), 100 mM NaCl, 7.5 mM EGTA, 0.1% Triton X-100

Question: How did the binding turn out when “histone deacetylase 1 (HDAC1) (from UniProt Q13547 1-482)” was run?
Answer: The binding was “binds”.
